In PMC6582314, “Ligands Exert Biased Activity to Regulate Sigma 1 Receptor Interactions With Cationic TRPA1, TRPV1, and TRPM8 Channels” (Frontiers in Pharmacology, 2019) one finds binding data, which are given here for two molecules.

No constants are given. Whether binding was seen depends on the method and setting. For part of these data: Tags and fused reporters may be left off the sequences shown.

The target in experiment [1] is TRPM8 N-terminal cytosolic region (aa 1-639), GST-tagged (mouse) (UniProt Q8R4D5). Description: pull-down; TRP sequence (100 nM) covalently attached to NHS-activated Sepharose 4FF; prey 200 nM; 200 µL 50 mM Tris-HCl pH 7.5, 0.2% CHAPS, without CaCl2; 30 min at RT, three washes; Western blot; both purified. In general terms: Immunoblotting shows a protein as a band on a membrane.

Experiment [2] has as its target TRPA1 C-terminal cytosolic region (aa 961-1125), GST-tagged (mouse) (UniProt Q8BLA8). Described as above.
Experiment [3] has the same target. As to the kind of experiment: pull-down; TRP sequence (100 nM) covalently attached to NHS-activated Sepharose 4FF; prey 200 nM; 200 µL 50 mM Tris-HCl pH 7.5, 0.2% CHAPS, with 3 mM CaCl2; 30 min at RT, three washes; Western blot; both purified.

B1: sigma 1 receptor (σ1R), full-length murine, GST-free (natural protein, mouse, UniProt O55242 1-223, looked up)
chain: MPWAAGRRWAWITLILTIIAVLIQAAWLWLGTQNFVFSREEIAQLARQYAGLDHELAFSRLIVELRRLHPGHVLPDEELQWVFVNAGGWMGAMCILHASLSEYVLLFGTALGSHGHSGRYWAEISDTIISGTFHQWKEGTTKSEVFYPGETVVHGPGEATALEWGPNTWMVEYGRGVIPSTLFFALADTFFSTQDYLTLFYTLRAYARGLRLELTTYLFGQDS
notes: sigma 1 receptor, mouse, GenBank AF004927, coding region of the full-length protein; 223 amino acids; also called type 1 sigma receptor; source: E. coli BL21 (KRX), purified (GStrap FF or HaloLink Resin, cleaved with ProTEV protease, ion exchange); not shown: GST, N-terminal, cleaved
B1: in experiment [1], the binding entry was “no binding (condition: in the absence of calcium (200 nM))”.

B2: histidine triad nucleotide-binding protein 1 (HINT1), murine, GST-free (natural protein, mouse, UniProt P70349 1-126, looked up)
chain: MADEIAKAQVAQPGGDTIFGKIIRKEIPAKIIFEDDRCLAFHDISPQAPTHFLVIPKKHISQISVADDDDESLLGHLMIVGKKCAADLGLKRGYRMVVNEGADGGQSVYHIHLHVLGGRQMNWPPG
notes: source: E. coli BL21 (KRX), purified (GStrap FF or HaloLink Resin, cleaved with ProTEV protease, ion exchange); not shown: GST, N-terminal, cleaved
Take B2: the binding entry in experiment [2] and in experiment [3] was “no binding (tested: 200 nM)” throughout.
